# Measured values from the supplement of paper PMC10735217.
# Where a name gives a salt, the structure may show the parent alone. This is one part of the list. Repeats in this data set agree poorly, so a single value says little.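 The human kidney-derived cells carry a stably integrated construct of eight TEAD-binding elements driving luciferase, read by luminescence in a drug-repurposing library screen. A compound counts as a hit when its signal is more than five robust Z scores above the plate mean.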
# Tested on: HEK293A TEAD-LUC reporter
# Test: TEAD-luciferase reporter activity (YAP activation), robust Z score vs plate; higher = stronger YAP/TEAD activation
# Conditions: 24 h
SMILES,TEAD-luciferase reporter activity (compound concentration: 200 nM),TEAD-luciferase reporter activity (compound concentration: 2 uM),TEAD-luciferase reporter activity (compound concentration: 10 uM)
N#Cc1cc2nc(O)c(O)nc2cc1[N+](=O)[O-],inactive: -0.0223,inactive: 4.05,inactive: -0.0522
CNc1cccc(NC(=O)C(=O)O)c1C#N,inactive: 0.424,inactive: 1.36,inactive: -0.221
O=C1NCc2ccccc2CC12CCCCN2Cc1ccc(O)cc1 (configuration not stated),inactive: 0.363,,inactive: 0.253
COc1cc2nc3c(nc2cc1C(=O)[O-])c(C(=O)NCCN(C)C)c(O)c1ccccc13,inactive: 2.16,,inactive: -1.22
Cc1cccc2scc(Cn3c(SCCCC(=O)O)nc4ccccc43)c12,inactive: -0.49,inactive: -0.431,active: 5.6
C[C@@H](O)[C@H](NC(=O)[C@H](Cc1ccccc1)NC(=O)[C@@H](NC(=O)[C@H](CCCCN)NC(=O)[C@@H](Cc1c[nH]c2ccccc12)NC(=O)[C@H](Cc1ccccc1)NC(=O)[C@H](Cc1ccccc1)NC(=O)[C@H](N)Cc1ccccc1)[C@@H](C)O)C(N)=O,inactive: 1.11,inactive: -0.552,inactive: -1.74
"CCCCNc1ccc(C(=O)OCCN(C)C)cc1 [tetracaine, MicroParticle]",inactive: 0.703,inactive: -0.89,inactive: 2.9
CCCOc1nc(N)c2ncn(C3CCCCC3)c2n1,inactive: 1.11,inactive: -1.16,inactive: -1.06
Oc1c(Cl)cc(Cl)c(Cl)c1Cc1c(O)c(Cl)cc(Cl)c1Cl,inactive: -0.0787,inactive: -1.67,inactive: -0.605
Cc1c(-c2ccc(O)cc2)n(CCCCCCN2CCCC2)c2ccc(O)cc12,inactive: -0.886,inactive: -1.16,inactive: 1.69
CC(=O)/C(=N/O)c1cc[n+](C)cc1,inactive: -1.06,inactive: 0.546,inactive: 1.08
Cc1ccc(C(C)C)cc1O [Carvacrol],inactive: -2.16,inactive: 0.12,inactive: -0.327
CCNC/C=C\CNCCCCNCCCCNC/C=C\CNCC,inactive: 0.193,,inactive: -0.178
O=C1NCCCCC1N(Cc1ccc(Br)cc1)S(=O)(=O)c1ccc(Cl)cc1 (configuration not stated),inactive: 1.38,inactive: 2.17,inactive: 1.01
C[C@@H](c1ccc(-c2ccccc2)c(F)c1)c1cc(/N=C(\N)N2CCOCC2)on1 [Rimacalib hydrochloride],inactive: -1.08,inactive: 0.393,inactive: 1.03
Cn1cnc2nc(O)nc(O)c21,inactive: -2.21,inactive: -1.96,inactive: -1.58
CC(C)=CCOc1cc(NC(=O)c2ccsc2C)ccc1Cl,inactive: -1.82,inactive: -0.395,inactive: -0.846
COc1cc(N)c(Cl)cc1C(=O)NC1CCN(CCCOc2ccc(F)cc2)CC1OC (configuration not stated) [cisapride],inactive: -0.166,inactive: -0.702,inactive: 0.311
COc1ccncc1CN1CCC(N(CCCCCCCN2CC[C@@H](C(C(N)=O)(c3ccccc3)c3ccccc3)C2)C(C)C)CC1,inactive: -0.527,inactive: 1.59,inactive: -0.647
"COc1cc2nccc(Oc3ccc(NC(=O)Nc4cc(C)on4)c(Cl)c3)c2cc1OC [tivozanib (ophthalmic), Ophthotech]",inactive: 2.44,,inactive: 0.958

SMILES,TEAD-luciferase reporter activity (compound concentration: 200 nM),TEAD-luciferase reporter activity (compound concentration: 2 uM),TEAD-luciferase reporter activity (compound concentration: 10 uM)
COc1cc2nccc(Oc3ccc(NC(=O)Nc4cc(C)on4)c(Cl)c3)c2cc1OC [tivozanib (ophthalmic)],,inactive: -2.1,
O=c1c2nc[nH]c2c2cccnc2n1-c1ccccc1,inactive: 1.31,inactive: -0.254,inactive: 0.974
CCCCS(=O)(=O)N[C@@H](Cc1ccc(OCCCCC2CCNCC2)cc1)C(=O)O [tirofiban hydrochloride],inactive: -1.8,inactive: 1.16,inactive: 0.687
Nc1c(NCCCOc2cccc(CN3CCCCC3)c2)c(=O)c1=O,inactive: -1.31,inactive: 0.589,inactive: -1.44
CN1C(=O)N(c2cc(Cl)cc(Cl)c2)C(=O)[C@@]1(C)Cc1ccc(Br)cc1,inactive: -0.709,inactive: 2.16,inactive: 0.308
CC(C)C[C@H](NC(=O)CNC(=O)c1cc(Cl)ccc1Cl)B1OC(=O)CC(CC(=O)O)(C(=O)O)O1 (some centres not stated) [Ixazomib citrate],,inactive: -0.886,
CC(C)C[C@H](NC(=O)CNC(=O)c1cc(Cl)ccc1Cl)B1OC(=O)CC(CC(=O)O)(C(=O)O)O1 (some centres not stated),active: 6.07,,inactive: -0.118
CC(C)CCN(C)Cc1ccc(-c2ccccc2)cc1,inactive: 1.71,,inactive: 0.767
O=C(c1ccc(F)c(F)c1Nc1ccc(I)cc1F)N1CC(O)([C@H]2CCCCN2)C1 [Cobimetinib],inactive: 0.146,inactive: -0.811,inactive: 0.74
Cc1c(CN2CCOC(c3ccccc3)C2C)c(=O)n(-c2ccccc2)n1C (configuration not stated),inactive: -1.21,inactive: 0.124,inactive: 0.747
CCOC(=O)c1c[nH]cn1,inactive: 0.549,inactive: -0.94,inactive: -0.133
CC(=O)N[C@@H](CSC(=O)c1ccccc1O)C(=O)O [Salnacedin],inactive: -0.901,inactive: 0.0198,inactive: 0.0173
C[N+](C)(C)NCCC(=O)[O-] [Mildronate],inactive: -0.792,,inactive: -1.14
CC1(C)O[C@H]2O[C@H]([C@H](O)CO)[C@H](O)[C@H]2O1,inactive: 0.00741,inactive: 0.308,inactive: -0.687
Cc1onc(-c2ccccc2Cl)c1C(=O)N[C@@H]1C(=O)N2[C@@H]1SC(C)(C)[C@@H]2C(=O)[O-],inactive: 1.28,inactive: -0.521,inactive: -0.326
CCCNCC(O)COc1ccc(SC)cc1 (configuration not stated),inactive: -1.56,inactive: -0.192,inactive: 2.89
O=C1CCCCCCCCCCCCCCO1 [Conrex Permeation Enhancer-215],inactive: 1.15,inactive: -0.159,inactive: 0.0978
COc1cc(NS(=O)(=O)c2ccc(N)cc2)nc(OC)n1,inactive: -0.833,inactive: -0.202,inactive: 1.12
O=C(/C=C/c1ccc(CN(CCO)CCc2c[nH]c3ccccc23)cc1)NO,,active: 26.2,
"O=C(/C=C/c1ccc(CN(CCO)CCc2c[nH]c3ccccc23)cc1)NO [LAQ824 (NVP-LAQ824, Dacinostat)]",active: 31,,active: 41.5

SMILES,TEAD-luciferase reporter activity (compound concentration: 200 nM),TEAD-luciferase reporter activity (compound concentration: 2 uM),TEAD-luciferase reporter activity (compound concentration: 10 uM)
CC(=O)Oc1ccccc1C(=O)OC1OC(=O)c2ccccc21 (configuration not stated) [talosalate],inactive: 1.54,inactive: -2.04,inactive: 1.13
CCCOCCn1c(=O)c(N2CCN(CCO)CC2)nc2cnc(-c3ccc(OC)nc3)cc21,inactive: 0.938,inactive: 0.0622,inactive: -0.533
CSCC[C@H](NC(=O)[C@H](Cc1c[nH]c2ccccc12)NC(=O)CCNC(=O)OC(C)(C)C)C(=O)N[C@@H](CC(=O)O)C(=O)N[C@@H](Cc1ccccc1)C(N)=O [Pentagastrin],inactive: 0.882,inactive: -0.352,inactive: -1.74
O=C1NCCN1C1CCN(CC[C@@H]2COc3ccccc3O2)CC1,inactive: -0.304,inactive: 3.27,inactive: 0.00606
CC(=O)NC1CCN(c2nc3ncccc3o2)C1 (configuration not stated),inactive: -0.96,,inactive: -0.867
O=C1NCc2ccccc2CC12CCCN2Cc1cccc(O)c1 (configuration not stated),inactive: -1.89,,inactive: -1.8
O=C(Nc1ccc2nc(O)oc2c1)C(=O)N1CCC(Cc2ccc(F)cc2)CC1 [radiprodil],inactive: -2.49,inactive: -1.85,inactive: 3.84
O=C(Cc1ccccn1)NC1CCN(c2nc3ncccc3o2)CC1,inactive: -1.1,,inactive: 0.907
COC(=O)N[C@H](C(=O)N1CCC[C@H]1c1ncc(C#CC#Cc2ccc(-c3cnc([C@@H]4CCCN4C(=O)[C@@H](NC(=O)OC)C(C)C)[nH]3)cc2)[nH]1)C(C)C,inactive: -1.39,inactive: -1.1,inactive: -1.61
CN1CCN(C/C(=N\O)c2ccc(CCc3ccccc3)cc2)CC1,inactive: -1.79,inactive: -1.05,inactive: 1.18
CC[N+](C)(C)C(C)CC(c1ccccc1)c1ccccc1 (configuration not stated),inactive: -0.629,inactive: 3.11,inactive: 1.32
CCS(=O)(=O)c1ccc(/C=N/NC(N)=S)cc1,inactive: 0.615,inactive: -0.446,inactive: 0.0863
NCCc1cc[nH]n1,inactive: 0.626,inactive: -0.596,inactive: 1.96
CCC1(c2ccccc2)NC(=O)N(C)C1=O (configuration not stated),inactive: -0.415,inactive: 0.705,inactive: -0.494
Cc1ccccc1-c1cc(N2CCOCC2)ncc1N(C)C(=O)C(C)(C)c1cc(C(F)(F)F)cc(C(F)(F)F)c1,inactive: -0.0959,inactive: 0.154,inactive: -0.329
CC(C(=O)O)c1ccc(C2CCCCC2)c2ccccc12 (configuration not stated),inactive: 0.792,inactive: -0.496,inactive: 0.206
CCN1CCc2nc(N)oc2CC1 [azepexole],inactive: -0.663,inactive: -1.31,inactive: -1.13
CC1(C)S[C@@H]2[C@H](NC(=O)COc3ccccc3)C(=O)N2[C@H]1C(=O)O [Phenoxymethylpenicillin],inactive: -0.8,inactive: 2.55,inactive: 0.0112

# Record cards (already shown). Order of values: TEAD-luciferase reporter activity (compound concentration: 200 nM)	TEAD-luciferase reporter activity (compound concentration: 2 uM)	TEAD-luciferase reporter activity (compound concentration: 10 uM)
# CCCNCC(O)COc1ccc(SC)cc1 (configuration not stated) in the list: inactive: -1.56	inactive: -0.192	inactive: 2.89
# Cc1onc(-c2ccccc2Cl)c1C(=O)N[C@@H]1C(=O)N2[C@@H]1SC(C)(C)[C@@H]2C(=O)[O-] in the list: inactive: 1.28	inactive: -0.521	inactive: -0.326
